# Library compounds against nucleic acid targets

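Compounds were printed on reactive glass slides in duplicate spots, a dye-labelled oligonucleotide was laid over them, and the fluorescence left after washing was read. For the PreQ1, TPP and SAM-II riboswitches the laboratory earlier reported (doi:10.1038/s41467-019-09493-3) 1 µM RNA, 2 h, and a rule that included a mean Z-score above 3 (spot signal-to-noise against the whole library), a score well above that on a control array, and duplicate spots agreeing (coefficient of variation under 100). The data file gives only the calls; its cut-offs may differ, and compounds hitting several targets are kept. These are primary screening calls, not affinities; a compound without a hit may have attached poorly or may still bind in solution.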 “hit” means called a hit, “none” means screened and not called a hit. This is an unselected part of the compounds tested. A dash means that no call is listed here.

Oligonucleotides screened, 5′ to 3′:
TPP: TPP riboswitch RNA three-way junction, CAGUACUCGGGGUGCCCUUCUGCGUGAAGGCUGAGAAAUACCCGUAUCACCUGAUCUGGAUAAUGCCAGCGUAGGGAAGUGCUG. About 160 hits among about 24,000 compounds.
SAM-II: SAM-II riboswitch RNA pseudoknot, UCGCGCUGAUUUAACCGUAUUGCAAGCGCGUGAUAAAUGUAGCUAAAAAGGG. About 200 hits among about 21,000 compounds.
PreQ1: PreQ1 riboswitch RNA pseudoknot, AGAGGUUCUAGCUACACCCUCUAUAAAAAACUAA. From B. subtilis. About 170 hits among about 24,000 compounds.

Compound	TPP	SAM-II	PreQ1
O=C(O)[C@H](Cc1c[nH]c2ccccc12)N1C(=O)c2ccccc2C1=O	none	none	none
COc1ccc(NC2(c3ccc(Cl)cc3)C(=O)c3ccccc3C2=O)cc1	none	none	none
NC1=C(c2nc3ccccc3s2)C(=O)CN1CCCN1CCOCC1	none	none	none
Clc1ccc(Nc2nc3nonc3nc2N2CCOCC2)cc1	none	-	none
O=C(NCCO)c1cc2ccccc2oc1=O	none	none	none
Cc1cc(-c2cccc3cnccc23)cnc1N	none	none	none
Cc1ccc(C2C(C#N)=C(N)Oc3c2c(=O)oc2ccccc32)cc1 (centres undefined)	none	none	none
Cc1ccc(O)c(Nc2nc3ccccc3c3nncn23)c1	none	none	none
O=C(O)CCCNc1ccc(S(=O)(=O)O)cc1	none	none	none
CCCc1cc(NCc2ccccc2)n2nc3nc(C)cc(C)c3c2n1	none	-	none
COCCc1noc(C2CCCN(c3nc(N)nc4c3CCCC4)C2)n1 (centres undefined)	none	none	none
CCc1ccc(C2c3c(-c4ccccc4O)n[nH]c3C(=O)N2CCO)cc1 (centres undefined)	none	-	none
N#CC1=C(N)Oc2c(c(=O)n(-c3ccccc3)c3ccccc23)C1c1ccccc1 (centres undefined)	none	none	none
COc1ccc(Nc2ncnc3c2nc2n3CCCC2)cc1OC	none	-	none
O=C(NCc1ccc2nonc2c1)[C@@]12CNC[C@@H]1CN(C1CCCC1)C2	none	none	none
CCCC1(CO)CCCN(C(=O)c2cc3cccc(C)c3n2C)C1 (centres undefined)	none	none	none
C=CCc1ccccc1OCC(O)CN1CCC(C)CC1 (centres undefined)	none	none	none
COc1ccccc1N1CC(c2nc3ccccc3n2CC(O)COc2cc(C)ccc2C)CC1=O (centres undefined)	none	-	none
N=c1c2c3c(sc2ncn1CCCO)CCCCC3	none	none	none
O=S(=O)(c1ccccc1)c1nc(-c2ccc(F)cc2)oc1NCC1CCCO1 (centres undefined)	none	-	none
Nc1c(C(=O)c2ccc(Br)cc2)sc2nc3c(cc12)CCC3	none	none	none
COc1ccc2[nH]c(C(=O)N[C@H]3CC[C@H]3N)cc2c1	none	none	none
CCCCC(=O)N1CCN(c2cc(Nc3ccc(C)cc3)nc(C)n2)CC1	none	-	none
Fc1ccc(Cl)cc1-c1nc(Nc2ccncc2)c2nccnc2n1	none	none	none
N#Cc1cccc(N2CCC(CO)(CCc3ccccc3)CC2)n1	none	none	none
O=C(CCNc1ccc(Br)cc1)c1cccc([N+](=O)[O-])c1	none	none	none
Cc1sc2nc(C)n(CCO)c(=O)c2c1C	none	none	none
CC(O)c1nc2ccccc2n1Cc1c(Cl)cccc1Cl (centres undefined)	none	none	none
Cc1ccc(NC2c3ccccc3C(=O)N2c2ccc(Cl)cn2)cc1F (centres undefined)	none	none	none
O=S1(=O)CC(O)C(Nc2ccccc2)C1 (centres undefined)	none	none	none
O=C(NCC(c1cccnc1)N1CCCCC1)c1cn2c(n1)CNCC2 (centres undefined)	none	none	none
O=C(CCc1cc2n(n1)CCCNC2)Nc1cccc(Cn2cncn2)c1	none	none	none
CCOCc1nc2c(c(NCC(C)Oc3cccnc3)n1)CCNCC2 (centres undefined)	none	none	none
O=C([C@H]1CC[C@@H](O)CC1)N1CCC(C(O)Cc2ccccc2)CC1 (some centres undefined)	none	none	none
CCOc1ccc([C@H]2C[C@@H](c3ccc(CC)cc3)Nc3nc(N)nn32)cc1	none	none	none
OC(c1ccccc1)c1nc(CCn2cnnn2)n(C2CCCCC2)n1 (centres undefined)	none	none	none
COCc1cc(N2C[C@@H](CN3CCCN(C)CC3)[C@@H](CO)C2)ncn1	none	none	none
CCc1ccc(CNCc2c(C(=O)O)[nH]c3cc(C)ccc23)cc1	none	-	none
COc1cccc2c1C(=O)c1c(O)c3c(c(O)c1C2=O)C[C@@](O)(/C(C)=N\O)C[C@@H]3OC1CC(N)C(O)C(C)O1.Cl (some centres undefined)	none	none	none
CN(C)c1ccc(C=Cc2nc3cc(N)ccc3[nH]2)cc1	none	none	none
CCC(C)(C)C(=O)O[C@H]1C[C@@H](C)C=C2C=C[C@H](C)[C@H](CC[C@@H]3C[C@@H](O)CC(=O)O3)[C@H]21	none	none	none
Cc1cc(N2CCC(NC3CCSC3)CC2)nc(-c2ccccc2)n1 (centres undefined)	none	none	none
Cc1ccc(S(=O)(=O)N2CCC(C(=O)NCCO)CC2)cc1	none	none	none
CC(C)NCc1ccccc1-c1cccc(CO)c1	none	none	none
CCn1ncnc1C(C)NC(=O)c1cn(CCN2CCNCC2)nn1 (centres undefined)	none	none	none
CC(Cc1cn(CCc2nnc(N)s2)nn1)c1ccccc1 (centres undefined)	none	none	none
CNCCN1C(=O)CC[C@H]2CN(C(=O)c3cc(F)cc(Cl)c3)CC[C@H]21	none	none	none
COc1cccc(-n2cc(C(C)N3CC4(CCNCC4)CCC3=O)cn2)c1 (centres undefined)	none	none	none
CCC(CO)N(Cc1ccccn1)C(=O)c1ccc(C)c(Cl)c1 (centres undefined)	none	none	none
CNC(=O)c1cc(S(=O)(=O)NC(C)(C)CO)ccc1Cl	none	none	none
COc1ccc(CNCCC2(C(C)C)CCOC(C)(C)C2)cc1 (centres undefined)	none	none	none
CCC(=O)c1cccc(-n2cc(CCO)cn2)c1	none	none	none

3 of the entries, repeated:

Compound,TPP,SAM-II,PreQ1
O=C(O)CCCNc1ccc(S(=O)(=O)O)cc1,none,none,none
COc1ccc2[nH]c(C(=O)N[C@H]3CC[C@H]3N)cc2c1,none,none,none
COc1ccc(NC2(c3ccc(Cl)cc3)C(=O)c3ccccc3C2=O)cc1,none,none,none

From ROBIN, a set of small-molecule microarray screens (doi:10.1002/anie.202211358).